Laboratory results published in paper PMC13321232.
Results are given in words; binding and its absence hold for the method and conditions named. Binding seen in cells or lysates may run through a third protein. Some entries that bind do so weakly or less than the wild type. Sequences can lack the tags named with a protein. Values belong to the binder of their own block, whether it stands above or below them.

How the values were obtained:
Experiment in all cases: co-IP; FLAG- and HA-tagged proteins cotransfected into Arabidopsis protoplasts from root cell suspension cultures; 10 µM MG132 for 6 h; lysis in 50 mM Tris-HCl pH 7.6, 150 mM NaCl, 1% NP-40, 0.1% SDS; anti-FLAG (anti-DYKDDDDK) or anti-HA magnetic beads, 4 °C; western blot
[1] = target: T1, ERL2-HA (Arabidopsis thaliana) (UniProt Q6XAT2)
T1 sequence: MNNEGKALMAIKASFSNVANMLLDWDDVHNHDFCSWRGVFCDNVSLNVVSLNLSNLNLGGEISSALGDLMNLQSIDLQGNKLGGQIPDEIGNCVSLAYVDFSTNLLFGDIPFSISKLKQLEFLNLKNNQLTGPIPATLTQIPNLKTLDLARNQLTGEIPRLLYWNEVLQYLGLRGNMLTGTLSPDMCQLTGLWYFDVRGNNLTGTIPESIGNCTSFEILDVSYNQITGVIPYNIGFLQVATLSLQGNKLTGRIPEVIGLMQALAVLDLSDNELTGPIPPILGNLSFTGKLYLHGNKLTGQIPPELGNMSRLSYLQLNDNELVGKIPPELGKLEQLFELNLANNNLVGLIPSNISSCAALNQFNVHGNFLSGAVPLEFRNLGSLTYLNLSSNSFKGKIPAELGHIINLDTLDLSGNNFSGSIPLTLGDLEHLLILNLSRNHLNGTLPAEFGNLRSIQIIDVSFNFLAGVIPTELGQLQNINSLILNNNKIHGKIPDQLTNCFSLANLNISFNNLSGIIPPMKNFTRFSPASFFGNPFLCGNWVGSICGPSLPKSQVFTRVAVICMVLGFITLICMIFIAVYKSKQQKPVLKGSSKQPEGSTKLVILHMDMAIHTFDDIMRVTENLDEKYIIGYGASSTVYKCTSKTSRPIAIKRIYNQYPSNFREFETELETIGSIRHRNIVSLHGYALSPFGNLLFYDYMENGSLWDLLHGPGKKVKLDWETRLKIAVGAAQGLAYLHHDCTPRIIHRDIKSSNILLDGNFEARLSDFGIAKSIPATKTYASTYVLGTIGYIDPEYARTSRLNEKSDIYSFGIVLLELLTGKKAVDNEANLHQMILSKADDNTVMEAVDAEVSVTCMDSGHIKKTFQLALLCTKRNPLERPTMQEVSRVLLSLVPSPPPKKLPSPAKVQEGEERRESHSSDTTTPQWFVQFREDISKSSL

[2] = target: T2, ER-HA (Arabidopsis thaliana) (UniProt Q42371)
T2 sequence: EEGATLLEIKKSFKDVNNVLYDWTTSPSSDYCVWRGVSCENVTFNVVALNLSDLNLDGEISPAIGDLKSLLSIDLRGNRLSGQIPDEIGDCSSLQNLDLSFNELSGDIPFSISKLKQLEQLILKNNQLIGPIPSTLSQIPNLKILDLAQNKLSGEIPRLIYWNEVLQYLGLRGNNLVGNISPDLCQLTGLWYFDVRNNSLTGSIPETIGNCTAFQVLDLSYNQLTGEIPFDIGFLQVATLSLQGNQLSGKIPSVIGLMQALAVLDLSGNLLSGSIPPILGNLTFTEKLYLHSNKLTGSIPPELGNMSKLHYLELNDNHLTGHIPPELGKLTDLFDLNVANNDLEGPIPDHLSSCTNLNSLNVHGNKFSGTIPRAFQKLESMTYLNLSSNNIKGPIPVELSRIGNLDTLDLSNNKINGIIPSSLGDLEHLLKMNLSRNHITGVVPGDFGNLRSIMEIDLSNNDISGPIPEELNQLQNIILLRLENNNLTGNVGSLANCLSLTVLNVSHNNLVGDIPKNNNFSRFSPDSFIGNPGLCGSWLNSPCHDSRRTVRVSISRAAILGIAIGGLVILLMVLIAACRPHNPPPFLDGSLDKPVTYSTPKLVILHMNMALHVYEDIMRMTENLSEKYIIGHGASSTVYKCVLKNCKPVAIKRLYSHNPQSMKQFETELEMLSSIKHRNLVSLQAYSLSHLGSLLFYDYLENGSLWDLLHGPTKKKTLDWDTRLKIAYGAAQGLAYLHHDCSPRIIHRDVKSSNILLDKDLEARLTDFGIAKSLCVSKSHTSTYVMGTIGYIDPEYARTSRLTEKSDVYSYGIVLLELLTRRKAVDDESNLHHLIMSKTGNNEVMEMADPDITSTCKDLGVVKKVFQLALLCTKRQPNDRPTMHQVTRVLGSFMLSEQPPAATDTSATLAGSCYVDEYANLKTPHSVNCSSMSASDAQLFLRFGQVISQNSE

[3] = target: T3, ERL1-HA (Arabidopsis thaliana) (UniProt C0LGW6)
T3 sequence: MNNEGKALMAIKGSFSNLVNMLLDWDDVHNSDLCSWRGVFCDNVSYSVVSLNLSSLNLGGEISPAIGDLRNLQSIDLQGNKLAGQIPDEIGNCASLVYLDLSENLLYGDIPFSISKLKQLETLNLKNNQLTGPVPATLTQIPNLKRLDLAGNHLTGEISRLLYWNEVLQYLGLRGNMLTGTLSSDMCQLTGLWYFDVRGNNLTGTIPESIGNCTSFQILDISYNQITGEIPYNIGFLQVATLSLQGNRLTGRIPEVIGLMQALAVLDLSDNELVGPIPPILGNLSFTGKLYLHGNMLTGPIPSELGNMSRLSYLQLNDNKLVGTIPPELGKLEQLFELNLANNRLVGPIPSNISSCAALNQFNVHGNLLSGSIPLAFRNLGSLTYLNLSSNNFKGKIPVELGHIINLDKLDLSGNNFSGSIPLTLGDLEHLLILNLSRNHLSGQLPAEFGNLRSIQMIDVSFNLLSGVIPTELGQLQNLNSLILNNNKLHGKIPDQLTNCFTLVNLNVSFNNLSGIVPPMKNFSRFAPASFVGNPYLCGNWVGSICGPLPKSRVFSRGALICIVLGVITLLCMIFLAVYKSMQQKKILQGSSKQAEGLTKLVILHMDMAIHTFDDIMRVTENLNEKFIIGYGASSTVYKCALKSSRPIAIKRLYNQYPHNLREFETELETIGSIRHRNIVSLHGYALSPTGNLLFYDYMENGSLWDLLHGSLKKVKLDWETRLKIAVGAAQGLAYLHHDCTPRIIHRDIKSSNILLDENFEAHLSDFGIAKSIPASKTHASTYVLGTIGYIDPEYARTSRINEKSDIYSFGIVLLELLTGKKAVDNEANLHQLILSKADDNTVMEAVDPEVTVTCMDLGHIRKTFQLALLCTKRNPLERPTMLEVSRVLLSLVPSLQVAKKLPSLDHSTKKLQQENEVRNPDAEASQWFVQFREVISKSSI

binding [1]: binds
binding [2]: binds
binding [3]: binds
B1: PXL1-flag (receptor, UniProt Q9FRS6 24-1029)
chain: ETFQNSEQEILLAFKSDLFDPSNNLQDWKRPENATTFSELVHCHWTGVHCDANGYVAKLLLSNMNLSGNVSDQIQSFPSLQALDLSNNAFESSLPKSLSNLTSLKVIDVSVNSFFGTFPYGLGMATGLTHVNASSNNFSGFLPEDLGNATTLEVLDFRGGYFEGSVPSSFKNLKNLKFLGLSGNNFGGKVPKVIGELSSLETIILGYNGFMGEIPEEFGKLTRLQYLDLAVGNLTGQIPSSLGQLKQLTTVYLYQNRLTGKLPRELGGMTSLVFLDLSDNQITGEIPMEVGELKNLQLLNLMRNQLTGIIPSKIAELPNLEVLELWQNSLMGSLPVHLGKNSPLKWLDVSSNKLSGDIPSGLCYSRNLTKLILFNNSFSGQIPEEIFSCPTLVRVRIQKNHISGSIPAGSGDLPMLQHLELAKNNLTGKIPDDIALSTSLSFIDISFNHLSSLSSSIFSSPNLQTFIASHNNFAGKIPNQIQDRPSLSVLDLSFNHFSGGIPERIASFEKLVSLNLKSNQLVGEIPKALAGMHMLAVLDLSNNSLTGNIPADLGASPTLEMLNVSFNKLDGPIPSNMLFAAIDPKDLVGNNGLCGGVLPPCSKSLALSAKGRNPGRIHVNHAVFGFIVGTSVIVAMGMMFLAGRWIYTRWDLYSNFAREYIFCKKPREEWPWRLVAFQRLCFTAGDILSHIKESNIIGMGAIGIVYKAEVMRRPLLTVAVKKLWRSPSPQNDIEDHHQEEDEEDDILREVNLLGGLRHRNIVKILGYVHNEREVMMVYEYMPNGNLGTALHSKDEKFLLRDWLSRYNVAVGVVQGLNYLHNDCYPPIIHRDIKSNNILLDSNLEARIADFGLAKMMLHKNETVSMVAGSYGYIAPEYGYTLKIDEKSDIYSLGVVLLELVTGKMPIDPSFEDSIDVVEWIRRKVKKNESLEEVIDASIAGDCKHVIEEMLLALRIALLCTAKLPKDRPSIRDVITMLAEAKPRRKSVCQVAGDLPIFRNSPVVGLI

binding [1]: binds
binding [2]: binds
binding [3]: binds
B2: PXL2-flag (receptor, UniProt Q9M0G7 24-1013)
chain: SIDNVNELSVLLSVKSTLVDPLNFLKDWKLSDTSDHCNWTGVRCNSNGNVEKLDLAGMNLTGKISDSISQLSSLVSFNISCNGFESLLPKSIPPLKSIDISQNSFSGSLFLFSNESLGLVHLNASGNNLSGNLTEDLGNLVSLEVLDLRGNFFQGSLPSSFKNLQKLRFLGLSGNNLTGELPSVLGQLPSLETAILGYNEFKGPIPPEFGNINSLKYLDLAIGKLSGEIPSELGKLKSLETLLLYENNFTGTIPREIGSITTLKVLDFSDNALTGEIPMEITKLKNLQLLNLMRNKLSGSIPPAISSLAQLQVLELWNNTLSGELPSDLGKNSPLQWLDVSSNSFSGEIPSTLCNKGNLTKLILFNNTFTGQIPATLSTCQSLVRVRMQNNLLNGSIPIGFGKLEKLQRLELAGNRLSGGIPGDISDSVSLSFIDFSRNQIRSSLPSTILSIHNLQAFLVADNFISGEVPDQFQDCPSLSNLDLSSNTLTGTIPSSIASCEKLVSLNLRNNNLTGEIPRQITTMSALAVLDLSNNSLTGVLPESIGTSPALELLNVSYNKLTGPVPINGFLKTINPDDLRGNSGLCGGVLPPCSKFQRATSSHSSLHGKRIVAGWLIGIASVLALGILTIVTRTLYKKWYSNGFCGDETASKGEWPWRLMAFHRLGFTASDILACIKESNMIGMGATGIVYKAEMSRSSTVLAVKKLWRSAADIEDGTTGDFVGEVNLLGKLRHRNIVRLLGFLYNDKNMMIVYEFMLNGNLGDAIHGKNAAGRLLVDWVSRYNIALGVAHGLAYLHHDCHPPVIHRDIKSNNILLDANLDARIADFGLARMMARKKETVSMVAGSYGYIAPEYGYTLKVDEKIDIYSYGVVLLELLTGRRPLEPEFGESVDIVEWVRRKIRDNISLEEALDPNVGNCRYVQEEMLLVLQIALLCTTKLPKDRPSMRDVISMLGEAKPRRKSNSNEENTSRSLAEKHSSVFSTSPVNGLL
